{"source": "PubChem BioAssay AID1224828 | NIAID – 2016", "purpose": "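Knock-downs that increase or decrease LPS-induced p65 nuclear translocation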 (primary screen)", "cell system": "mouse RAW264.7 G9 macrophage reporter cells (GFP-p65, Tnf promoter-mCherry)", "reagents": "siRNA pool against mouse genes, 100 nM", "time to read-out": "2 days siRNA transfection, then 40 min LPS before fixation", "challenge": "LPS (Salmonella minnesota R595) at 10 ng/ml", "measurement": "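Microscopy ratio of nuclear to perinuclear-ring GFP-p65 signal, scaled to the plate median; gene score is the average of two replicate robust z-scores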", "direction": "p65 translocation robust z-score: higher = more nuclear NF-kappaB p65 after LPS than the plate median; nuclear/cytoplasmic p65 ratio: higher = more nuclear NF-kappaB p65", "hit rule": "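Active if robust z is above 3.3 (negative regulators) or below -1.56, the Tlr4 control median (positive regulators); activity score 50 or more; control wells not called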", "calls": "active = hit (p65 shift raised or lowered); inactive = no clear change", "note": "The deposit covers about 17,000 reagents; shown is a random part of them. 762 of them (4.5%) were called active. 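Active calls include both raised and lowered p65 entry, mostly lowered; wells with fewer than 50 cells lack a z-score.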 Raw values are not corrected between plates. Entries without a mark were called inactive. The numbers tell different reagents against one gene apart."}
{"Target gene": "Sdr9c7", "pool no.": 1, "p65 translocation robust z-score": 0.19, "nuclear/cytoplasmic p65 ratio, rep 1": 1.47, "nuclear/cytoplasmic p65 ratio, rep 2": 1.22, "low cell count flag": "enough cells to score"}
{"Target gene": "Or1j14", "pool no.": 1, "p65 translocation robust z-score": -1.03, "nuclear/cytoplasmic p65 ratio, rep 1": 1.41, "nuclear/cytoplasmic p65 ratio, rep 2": 1.33, "low cell count flag": "enough cells to score"}
{"Target gene": "Dcc", "pool no.": 1, "p65 translocation robust z-score": 0.64, "nuclear/cytoplasmic p65 ratio, rep 1": 1.48, "nuclear/cytoplasmic p65 ratio, rep 2": 1.52, "low cell count flag": "enough cells to score"}
{"Target gene": "Bpifb3", "pool no.": 1, "p65 translocation robust z-score": -0.15, "nuclear/cytoplasmic p65 ratio, rep 1": 1.48, "nuclear/cytoplasmic p65 ratio, rep 2": 1.14, "low cell count flag": "enough cells to score"}
{"Target gene": "Xpo1", "pool no.": 1, "p65 translocation robust z-score": 1.2, "nuclear/cytoplasmic p65 ratio, rep 1": 1.55, "nuclear/cytoplasmic p65 ratio, rep 2": 1.79, "low cell count flag": "enough cells to score"}
{"Target gene": "Npl", "pool no.": 1, "p65 translocation robust z-score": 0.92, "nuclear/cytoplasmic p65 ratio, rep 1": 1.9, "nuclear/cytoplasmic p65 ratio, rep 2": 1.62, "low cell count flag": "enough cells to score"}
{"Target gene": "Stac", "pool no.": 1, "p65 translocation robust z-score": -0.28, "nuclear/cytoplasmic p65 ratio, rep 1": 1.57, "nuclear/cytoplasmic p65 ratio, rep 2": 1.46, "low cell count flag": "enough cells to score"}
{"Target gene": "Ddx21", "pool no.": 1, "p65 translocation robust z-score": -0.17, "nuclear/cytoplasmic p65 ratio, rep 1": 1.57, "nuclear/cytoplasmic p65 ratio, rep 2": 1.5, "low cell count flag": "enough cells to score"}
{"Target gene": "Arhgap4", "pool no.": 1, "p65 translocation robust z-score": 0.21, "nuclear/cytoplasmic p65 ratio, rep 1": 1.71, "nuclear/cytoplasmic p65 ratio, rep 2": 1.6, "low cell count flag": "enough cells to score"}
{"Target gene": "Chd9", "pool no.": 1, "p65 translocation robust z-score": 0.52, "nuclear/cytoplasmic p65 ratio, rep 1": 1.63, "nuclear/cytoplasmic p65 ratio, rep 2": 1.75, "low cell count flag": "enough cells to score"}
{"Target gene": "Scap", "pool no.": 1, "p65 translocation robust z-score": -0.46, "nuclear/cytoplasmic p65 ratio, rep 1": 1.42, "nuclear/cytoplasmic p65 ratio, rep 2": 1.49, "low cell count flag": "enough cells to score"}
{"Target gene": "Thoc7", "pool no.": 1, "p65 translocation robust z-score": -0.91, "nuclear/cytoplasmic p65 ratio, rep 1": 1.64, "nuclear/cytoplasmic p65 ratio, rep 2": 1.11, "low cell count flag": "enough cells to score"}
{"Target gene": "Thoc7", "pool no.": 2, "p65 translocation robust z-score": -0.57, "nuclear/cytoplasmic p65 ratio, rep 1": 1.33, "nuclear/cytoplasmic p65 ratio, rep 2": 1.49, "low cell count flag": "enough cells to score"}
{"Target gene": "Zscan21", "pool no.": 1, "p65 translocation robust z-score": "-1.68 (active)", "nuclear/cytoplasmic p65 ratio, rep 1": 1.15, "nuclear/cytoplasmic p65 ratio, rep 2": 1.09, "low cell count flag": "enough cells to score"}
{"Target gene": "Krt20", "pool no.": 1, "p65 translocation robust z-score": -0.19, "nuclear/cytoplasmic p65 ratio, rep 1": 1.64, "nuclear/cytoplasmic p65 ratio, rep 2": 1.53, "low cell count flag": "enough cells to score"}
{"Target gene": "Srpk1", "pool no.": 1, "p65 translocation robust z-score": -0.15, "nuclear/cytoplasmic p65 ratio, rep 1": 1.29, "nuclear/cytoplasmic p65 ratio, rep 2": 1.36, "low cell count flag": "enough cells to score"}
{"Target gene": "Pold4", "pool no.": 1, "p65 translocation robust z-score": -1.39, "nuclear/cytoplasmic p65 ratio, rep 1": 1.14, "nuclear/cytoplasmic p65 ratio, rep 2": 1.06, "low cell count flag": "enough cells to score"}
{"Target gene": "Stk25", "pool no.": 1, "p65 translocation robust z-score": 1.95, "nuclear/cytoplasmic p65 ratio, rep 1": 1.99, "nuclear/cytoplasmic p65 ratio, rep 2": 1.64, "low cell count flag": "enough cells to score"}
{"Target gene": "Pabpc2", "pool no.": 1, "p65 translocation robust z-score": -0.18, "nuclear/cytoplasmic p65 ratio, rep 1": 1.43, "nuclear/cytoplasmic p65 ratio, rep 2": 1.21, "low cell count flag": "enough cells to score"}
{"Target gene": "Pak3", "pool no.": 1, "p65 translocation robust z-score": -1.25, "nuclear/cytoplasmic p65 ratio, rep 1": 1.53, "nuclear/cytoplasmic p65 ratio, rep 2": 1.22, "low cell count flag": "enough cells to score"}
{"Target gene": "Dhrs7", "pool no.": 1, "p65 translocation robust z-score": 0.53, "nuclear/cytoplasmic p65 ratio, rep 1": 1.64, "nuclear/cytoplasmic p65 ratio, rep 2": 1.63, "low cell count flag": "enough cells to score"}
